# Measurements: patent US8883741B2, “Stimulator of genital, sexual and reproductive function” (Bio Peptid Company Limited, priority 2009, dated 2014)
# At least one peptide structure holds a part that was inferred or is arguable (an end, a ring closure or a residue). Where no end group is shown, it is not given here.
# How the values were obtained:
# [1] = test system: rats of the Hunter strain; experiment: Effect on reproductive behavior and reproductive function of rats; assay type: in vivo, rat
# [2] = test system: women with sexual dysfunction not caused by organic disorders or diseases; experiment: Sexual function on quantified SFW scale, Group II; assay type: in vivo, human
# [3] = Group II n=10, before treatment 0 (0%)
# [4] = Group II n=10, before treatment 1 (10%)
# [5] = Group II n=10, before treatment 3 (30%)
# [6] = Group II n=10, before treatment 3.5
# [7] = Group II n=10, before treatment 4 (40%)
# [8] = Group II n=10, before treatment 6 (60%)
# [9] = Group II n=10, before treatment 7 (70%)
substance,measurement,setting,value
"TKPRPGP [heptapeptide, Thr-Lys-Pro-Arg-Pro-Gly-Pro]","Development of conditioned reflexes in offspring, combination number","[1]; 1-1.5 month-old baby rats, intact ones only in combination 13-15",4-5
same,Weight of new-born baby rats,[1]; 2-3 g for intact ones,4 to 5 g
same,Increase of birth rate of the rats,[1]; against the drug background,3-5 times
same,"Behavioral changes (interest, friendly behavior, courting, grooming, ano-genital examination)","[1]; intranasal administration, for 10-15 min, all the study groups of animals",pronounced behavioral changes
same,Freezing reaction (behavioral stress marker),"[1]; old animals and ones operated on (destruction of the hippocampus, occlusion of the carotid artery)",the freezing reaction disappeared
same,Reproductive outcome in old rats,"[1]; rats older than 2 years, norm: maceration of the fetus in 70% or absence of pregnancy in 85%",birth of live offspring was exhibited
same,Number of newborns in old rats,"[1]; rats older than 2 years, up to",5-6 individuals
same,Duration of the reinforcing effect on reproductive behavior,[1]; up to,1.5-2 months
same,Number of offspring,"[1]; up to, norm in intact Khanter rats 5-6",12-15 young
same,Cases in which the effect set in,[2]; Group II,no more than 90%
same,Day of taking the drug on which the effect in general sets in,[2]; Group II,7 to 11 days
same,"General physical state after sexual acts (n = 33), mean time for onset of effect",[2]; Group II,7.0 days
same,"Level of sexual activity (n = 27), mean time for onset of effect",[2]; Group II,11.0 days
same,"Mood after sexual acts (n = 33), mean time for onset of effect",[2]; Group II,9.0 days
same,"Onset of orgasm (n = 33), mean time for onset of effect",[2]; Group II,10.0 days
same,Patients in whom libido occurred daily after the course,[2]; Group II,70%
same,Patients in whom libido was increased with a score of 2,[2]; Group II,10%
same,"Reinforcement of sexual function in general, score on the quantified SFW scale",[2]; Group II,1 score
same,Women in whom sexual activity increases,[2]; Group II,40%
same,Women in whom the mental component of the copulation cycle is reinforced,[2]; Group II,70.0-90.0%
same,Women in whom the orgasmic component is reinforced,[2]; Group II,70.0%
same,Women in whom the secretor component is reinforced,[2]; Group II,60.0%
same,"Attitude toward sexual activity, mean time for onset of effect",[2]; Group II n=10,11.0 days
same,"Libido, mean time for onset of effect",[2]; Group II n=10,10.0 days
same,"Lubrication, mean time for onset of effect",[2]; Group II n=10,7.0 days
same,Attitude toward sexual activity score 5 (intense enjoyment): number of patients (%) after treatment,[2]; [3],3 (30%)
same,Level of sexual activity score 5 (daily): number of patients (%) after treatment,[2]; [3],2 (20%)
same,Libido score 4 (weekly): number of patients (%) after treatment,[2]; [3],2 (20%)
same,Libido score 5 (daily): number of patients (%) after treatment,[2]; [3],7 (70%)
same,Libido score 6 (several times a day): number of patients (%) after treatment,[2]; [3],0 (0%)
same,Lubrication score 5 (sets in rapidly): number of patients (%) after treatment,[2]; [3],2 (20%)
same,Mood after sex acts score 5 (feeling of gratitude toward man): number of patients (%) after treatment,[2]; [3],6 (60%)
same,Onset of orgasm score 5 (more than 80% of the sex acts): number of patients (%) after treatment,[2]; [3],7 (70%)
same,Attitude toward sexual activity score 2 (aversion to the sex act): number of patients (%) after treatment,[2]; [4],0 (0%)
same,Attitude toward sexual activity score 4 (enjoyment depends on menesis): number of patients (%) after treatment,[2]; [4],7 (70%)
same,Lubrication score 2 (rarely emerges): number of patients (%) after treatment,[2]; [4],0 (0%)
same,Level of sexual activity score 4 (weekly): number of patients (%) after treatment,[2]; [5],7 (70%)
same,Libido score 2 (yearly): number of patients (%) after treatment,[2]; [5],0 (0%)
same,Lubrication score 3 (with protracted stimulation): number of patients (%) after treatment,[2]; [5],1 (10%)
same,"Attitude toward sexual activity, score after treatment",[2]; [6],5.0 points
same,"Libido, score after treatment",[2]; [6],5.0 points
same,"Lubrication, score after treatment",[2]; [6],5.0 points
same,General physical state after sex acts score 3 (unfulfilled arousal): number of patients (%) after treatment,[2]; [7],0 (0%)
same,Onset of orgasm score 3 (single occurrences): number of patients (%) after treatment,[2]; [7],0 (0%)
same,General physical state after sex acts score 4 (sensation of release of arousal): number of patients (%) after treatment,[2]; [8],60 (60%)
same,Lubrication score 4 (depends on presence of attraction): number of patients (%) after treatment,[2]; [8],7 (70%)
same,Onset of orgasm score 4 (in half of the sex acts): number of patients (%) after treatment,[2]; [8],3 (30%)
same,Level of sexual activity score 3 (monthly): number of patients (%) after treatment,[2]; [9],1 (10%)
same,Libido score 3 (monthly): number of patients (%) after treatment,[2]; [9],1 (10%)
same,Mood after sex acts score 4 (recognition of duty fulfilled): number of patients (%) after treatment,[2]; [9],3 (30%)
same,Attitude toward sexual activity score 3 (indifference toward the sex act): number of patients (%) after treatment,"[2]; Group II n=10, before treatment 8 (80%)",0 (0%)
same,Mood after sex acts score 3 (complete indifference): number of patients (%) after treatment,"[2]; Group II n=10, before treatment 30 (30%)",1 (10%)
same,"Attitude toward sexual activity: patients with onset of effect, number (%)","[2]; Group II n=10, day 1",0 (0%)
same,"General physical state after sexual acts: patients with onset of effect, number (%)","[2]; Group II n=10, day 1",0 (0%)
same,"Level of sexual activity: patients with onset of effect, number (%)","[2]; Group II n=10, day 1",0 (0%)
same,"Lubrication: patients with onset of effect, number (%)","[2]; Group II n=10, day 1",0 (0%)
same,"Mood after sexual acts: patients with onset of effect, number (%)","[2]; Group II n=10, day 1",0 (0%)
same,"Onset of orgasm: patients with onset of effect, number (%)","[2]; Group II n=10, day 1",0 (0%)
same,"Libido: patients with onset of effect, number (%)","[2]; Group II n=10, day 1 of drug administration",0 (0%)
same,"Attitude toward sexual activity: patients with onset of effect, number (%)","[2]; Group II n=10, day 5",2 (20%)
same,"General physical state after sexual acts: patients with onset of effect, number (%)","[2]; Group II n=10, day 5",3 (30%)
same,"Level of sexual activity: patients with onset of effect, number (%)","[2]; Group II n=10, day 5",1 (10%)
same,"Libido: patients with onset of effect, number (%)","[2]; Group II n=10, day 5",1 (10%)
same,"Lubrication: patients with onset of effect, number (%)","[2]; Group II n=10, day 5",3 (30%)
same,"Mood after sexual acts: patients with onset of effect, number (%)","[2]; Group II n=10, day 5",2 (20%)
same,"Onset of orgasm: patients with onset of effect, number (%)","[2]; Group II n=10, day 5",2 (20%)
same,"Attitude toward sexual activity: patients with onset of effect, number (%)","[2]; Group II n=10, day 10",7 (70%)
same,"General physical state after sexual acts: patients with onset of effect, number (%)","[2]; Group II n=10, day 10",8 (80%)
same,"Level of sexual activity: patients with onset of effect, number (%)","[2]; Group II n=10, day 10",4 (40%)
same,"Libido: patients with onset of effect, number (%)","[2]; Group II n=10, day 10",9 (90%)
same,"Lubrication: patients with onset of effect, number (%)","[2]; Group II n=10, day 10",7 (70%)
same,"Mood after sexual acts: patients with onset of effect, number (%)","[2]; Group II n=10, day 10",5 (50%)
same,"Onset of orgasm: patients with onset of effect, number (%)","[2]; Group II n=10, day 10",7 (70%)
same,"Attitude toward sexual activity: patients with onset of effect, number (%)","[2]; Group II n=10, day 15",7 (70%)
same,"General physical state after sexual acts: patients with onset of effect, number (%)","[2]; Group II n=10, day 15",8 (80%)
same,"Level of sexual activity: patients with onset of effect, number (%)","[2]; Group II n=10, day 15",4 (40%)
same,"Libido: patients with onset of effect, number (%)","[2]; Group II n=10, day 15",9 (90%)
same,"Lubrication: patients with onset of effect, number (%)","[2]; Group II n=10, day 15",7 (70%)
same,"Mood after sexual acts: patients with onset of effect, number (%)","[2]; Group II n=10, day 15",5 (50%)
same,"Onset of orgasm: patients with onset of effect, number (%)","[2]; Group II n=10, day 15",7 (70%)
same,Patients in whom the sex act began to provide intense enjoyment,"[2]; Group II, after the course",30%
same,Patients participating in sex acts as often as weekly and daily,"[2]; Group II, after the course",90%
same,Patients with a feeling of satisfaction and a pleasant fatigue at conclusion,"[2]; Group II, after the course",40%
same,Patients with orgasm at almost every sex act,"[2]; Group II, after the course",40%
same,Patients with orgasm in half the cases of sexual contact,"[2]; Group II, after the course",60.0%
same,"Level of sexual activity (n = 27), score after treatment","[2]; Group II, before treatment 3.0",4.0 points
same,"Mood after sexual acts (n = 33), score after treatment","[2]; Group II, before treatment 3.0",4.5 points
same,"General physical state after sexual acts (n = 33), score after treatment","[2]; Group II, before treatment 3.5",4.5 points
same,"Onset of orgasm (n = 33), score after treatment","[2]; Group II, before treatment 3.5",4.5 points
